Source: PubChem BioAssay AID256 (DTP/NCI, 2004)
The list is a part of this screen's results and no random one: it is rich in T/C values a quarter to a half above the control, in often repeated tests (any T/C) and in doses without a T/C. Other doses and runs of a compound stand elsewhere. T/C is the treated group as % of the vehicle group. Some doses have a count of surviving animals in place of a T/C: the source files T/C as zero there, which appears to mark a toxic dose or a test without result, not a measured value. Some doses without a T/C left all or most animals alive at the check, yet need not have been tolerated: survival well below the control is almost never listed, so the zero probably covers shortened survival too. Survivors were counted at the toxicity check, usually on the fifth day, unless a day is given; later deaths do not show. Schedule codes are those of the source, taken here to give the interval after Q, in days (D) or hours (H), and the number of doses after X. Where survival is the endpoint, this PubChem deposit counts one and a half times the control or more as active, and values a quarter to a half above the control carry no call in these data; other NCI protocols may use other cut-offs. Some entries hold several experiments; their values stand side by side, smallest first. Some T/C values are followed by the survivors on the day toxicity was checked, most often the fifth; where none is given, no animal had died by that day.

System: CD2F1 mice, L1210 leukemia ip, survival T/C
Assay: NCI In Vivo Anticancer Drug Screen. Data for tumor model L1210 Leukemia (intraperitoneal) in CD2F1 (CDF1) mice
Conditions: higher T/C = longer survival
How it was run: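 Each value reflects a quotient of treated over vehicle control outcomes in mice with a transplanted tumor.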

[1] = T/C endpoint: mean survival time, dose: 150.0 mg/kg/injection, schedule: Q01DX001 (ip), vehicle: saline
[2] = T/C endpoint: mean survival time, dose: 300.0 mg/kg/injection, schedule: Q01DX001 (ip), vehicle: saline
[3] = T/C endpoint: mean survival time, dose: 200.0 mg/kg/injection, schedule: Q01DX009 (ip), vehicle: saline with Tween-80
[4] = T/C endpoint: mean survival time, dose: 400.0 mg/kg/injection, schedule: Q01DX009 (ip), vehicle: saline with Tween-80
[5] = T/C endpoint: median survival time, dose: 4.0 mg/kg/injection, schedule: Q01DX009 (ip), vehicle: saline

CCNC(C)(C)C(SSSC(c1ccc(C(F)(F)F)cc1)C(C)(C)NCC)c1ccc(C(F)(F)F)cc1 (centres undefined)
survivor count (T/C endpoint: mean survival time, dose: 200.0 mg/kg/injection, schedule: Q01DX009 (ip), vehicle: saline): 2 of 6 | survivor count (T/C endpoint: mean survival time, dose: 400.0 mg/kg/injection, schedule: Q01DX009 (ip), vehicle: saline): 0 of 6

O=S(=O)(O)c1ccc(N=Nc2cc(O)cc3ccccc23)cc1
survivor count (T/C endpoint: mean survival time, dose: 50.0 mg/kg/injection, schedule: Q01DX001 (ip), vehicle: saline): 3 of 3 | survivor count (T/C endpoint: mean survival time, dose: 100.0 mg/kg/injection, schedule: Q01DX001 (ip), vehicle: saline): 3 of 3 | survivor count (T/C endpoint: mean survival time, dose: 200.0 mg/kg/injection, schedule: Q01DX001 (ip), vehicle: saline): 3 of 3

Nc1nc(N)c(-c2ccc(Cl)cc2)c(COc2cccc(NC(=O)CBr)c2)n1
survivor count (T/C endpoint: mean survival time, dose: 50.0 mg/kg/injection, schedule: Q01DX001 (ip), vehicle: saline with Tween-80): 1 of 6 | survivor count (T/C endpoint: mean survival time, dose: 100.0 mg/kg/injection, schedule: Q01DX001 (ip), vehicle: saline with Tween-80): 0 of 6 | survivor count (T/C endpoint: mean survival time, dose: 200.0 mg/kg/injection, schedule: Q01DX001 (ip), vehicle: saline with Tween-80): 1 of 6

NC(N)=N/N=C(\c1ccc(C(F)(F)F)cc1)c1ccc(Cl)c(Cl)c1
survivor count [1]: 0 of 6 | survivor count [2]: 0 of 6

CC([NH-])C[NH-].[Na+].[O]=[Co][O-] (centres undefined)
survivor count (T/C endpoint: mean survival time, dose: 75.0 mg/kg/injection, schedule: Q01DX001 (ip), vehicle: saline): 3 of 6 | survivor count [1]: 2 of 6 | survivor count [2]: 0 of 6

CN(C)CCCN1c2ccccc2C(C)(C)c2ccccc21
survivor count (T/C endpoint: mean survival time, dose: 100.0 mg/kg/injection, schedule: Q01DX009 (ip), vehicle: saline with Tween-80): 2 of 6 | survivor count [3]: 0 of 6 | survivor count (T/C endpoint: mean survival time, dose: 200.0 mg/kg/injection, schedule: Q04DX003 (ip), vehicle: saline with Tween-80): 6 of 6 | survivor count [4]: 0 of 6

CCCCCNC(=O)CCC(NC(=O)c1ccc(N(C)Cc2cnc3nc(N)nc(N)c3n2)cc1)C(=O)O (centres undefined)
T/C (T/C endpoint: mean survival time, dose: 25.0 mg/kg/injection, schedule: Q01DX009 (ip), vehicle: sodium bicarbonate): 125 % of control | T/C (T/C endpoint: mean survival time, dose: 33.0 mg/kg/injection, schedule: Q01DX009 (ip), vehicle: sodium bicarbonate): 128 % of control | T/C (T/C endpoint: mean survival time, dose: 50.0 mg/kg/injection, schedule: Q01DX009 (ip), vehicle: sodium bicarbonate): 130 % of control | T/C (T/C endpoint: mean survival time, dose: 75.0 mg/kg/injection, schedule: Q01DX009 (ip), vehicle: sodium bicarbonate): 135 % of control | T/C (T/C endpoint: mean survival time, dose: 112.0 mg/kg/injection, schedule: Q01DX009 (ip), vehicle: sodium bicarbonate): 132 % of control

FC(F)(F)/C([S-])=C(/[S-])C(F)(F)F.[Ni].[c-]1[c-][c-][cH-][c-]1
survivor count (T/C endpoint: mean survival time, dose: 38.0 mg/kg/injection, schedule: Q01DX001 (ip), vehicle: other): 3 of 6 | survivor count (T/C endpoint: mean survival time, dose: 75.0 mg/kg/injection, schedule: Q01DX001 (ip), vehicle: other): 2 of 6 | survivor count (T/C endpoint: mean survival time, dose: 150.0 mg/kg/injection, schedule: Q01DX001 (ip), vehicle: other): 0 of 6 | survivor count (T/C endpoint: mean survival time, dose: 300.0 mg/kg/injection, schedule: Q01DX001 (ip), vehicle: other): 0 of 6

CC(Br)C(=O)c1ccc2ncccc2c1 (centres undefined)
survivor count (T/C endpoint: mean survival time, dose: 100.0 mg/kg/injection, schedule: Q04DX002 (ip), vehicle: other): 0 of 3 | survivor count (T/C endpoint: mean survival time, dose: 200.0 mg/kg/injection, schedule: Q04DX002 (ip), vehicle: other): 0 of 3 | survivor count (T/C endpoint: mean survival time, dose: 400.0 mg/kg/injection, schedule: Q04DX002 (ip), vehicle: other): 0 of 3

CC(=O)c1ccc[n+](Cc2c(Cl)cccc2Cl)c1
survivor count (T/C endpoint: mean survival time, dose: 100.0 mg/kg/injection, schedule: Q04DX003 (ip), vehicle: saline): 5 of 6 | survivor count (T/C endpoint: mean survival time, dose: 200.0 mg/kg/injection, schedule: Q04DX003 (ip), vehicle: saline): 1 of 6 | survivor count (T/C endpoint: mean survival time, dose: 400.0 mg/kg/injection, schedule: Q04DX003 (ip), vehicle: saline): 1 of 6

CC(=O)Oc1[nH]c(=O)c2cccc3c2c1CCC3
survivor count (T/C endpoint: median survival time, dose: 800.0 mg/kg/injection, schedule: Q01DX009 (ip), vehicle: saline with Tween-80): 4 of 6

CCCCCCC[CH2][Sn]1([CH2]CCCCCCC)[O]C2C(CO)OC(n3cnc4c(=O)[nH]c(N)nc43)C2[O]1 (centres undefined)
survivor count (T/C endpoint: mean survival time, dose: 25.0 mg/kg/injection, schedule: Q01DX005 (ip), vehicle: other): 0 of 6 | survivor count (T/C endpoint: mean survival time, dose: 50.0 mg/kg/injection, schedule: Q01DX005 (ip), vehicle: other): 0 of 6 | survivor count (T/C endpoint: mean survival time, dose: 100.0 mg/kg/injection, schedule: Q01DX005 (ip), vehicle: other): 0 of 6 | survivor count (T/C endpoint: mean survival time, dose: 200.0 mg/kg/injection, schedule: Q01DX005 (ip), vehicle: other): 0 of 6

NC(N)=NC(N)=Nc1cnccn1
survivor count [2]: 0 of 6

CCOc1ccc(-n2c(=O)c(N=Nc3ccccc3)c(O)n(-c3ccc(C)cc3)c2=S)cc1
survivor count (T/C endpoint: mean survival time, dose: 400.0 mg/kg/injection, schedule: Q01DX001 (ip), vehicle: saline with Tween-80): 1 of 6

O=C(Nc1c(Oc2ccc(Cl)cc2Cl)ccc(Cl)c1S(=O)(=O)O)Nc1c(Oc2ccc(Cl)cc2Cl)ccc(Cl)c1S(=O)(=O)O
survivor count (T/C endpoint: mean survival time, dose: 400.0 mg/kg/injection, schedule: Q01DX001 (ip), vehicle: saline): 0 of 6

S=C(Nc1ccc(Cl)c(Cl)c1)N1c2ccccc2-n2cccc2C1c1cccnc1 (centres undefined)
T/C (T/C endpoint: mean survival time, dose: 400.0 mg/kg/injection, schedule: Q01DX009 (ip), vehicle: Klucel (hydroxypropylcellulose) (HPC)): 130 [4 of 6 alive] and 138 % of control | survivor count (T/C endpoint: mean survival time, dose: 800.0 mg/kg/injection, schedule: Q01DX009 (ip), vehicle: Klucel (hydroxypropylcellulose) (HPC)): 2 of 6

O=C1C=C[C@H](O)[C@@]2(CO)O[C@@H]12
T/C (T/C endpoint: median survival time, dose: 5.0 mg/kg/injection, schedule: Q01DX009 (ip), vehicle: saline with Tween-80): 128 % of control | T/C (T/C endpoint: median survival time, dose: 10.0 mg/kg/injection, schedule: Q01DX009 (ip), vehicle: saline with Tween-80): 126 % of control | survivor count (T/C endpoint: median survival time, dose: 20.0 mg/kg/injection, schedule: Q01DX009 (ip), vehicle: saline with Tween-80): 3 of 6

[N-]=[N+]=CC(=O)CCC(=O)C=[N+]=[N-]
T/C (T/C endpoint: mean survival time, dose: 6.25 mg/kg/injection, schedule: Q01DX009 (ip), vehicle: other): 141 % of control | survivor count (T/C endpoint: mean survival time, dose: 50.0 mg/kg/injection, schedule: Q01DX009 (ip), vehicle: other): 6 of 6

C[P+](c1ccc(F)cc1)(c1ccc(F)cc1)c1ccc(F)cc1
survivor count (T/C endpoint: mean survival time, dose: 100.0 mg/kg/injection, schedule: Q04DX002 (ip), vehicle: saline with Tween-80): 2 of 3

CC1=CC2C(O)(CC(CO)=CC3C4C(C)(C)C4(OC(=O)c4ccccc4)C(OC(=O)c4ccccc4)C(C)C32O)C1=O (centres undefined)
survivor count (T/C endpoint: median survival time, dose: 2.0 mg/kg/injection, schedule: Q01DX009 (ip), vehicle: saline with Tween-80): 2 of 6

NC(=O)NC1CC1(c1ccccc1)c1ccccc1 (centres undefined)
survivor count (T/C endpoint: mean survival time, dose: 600.0 mg/kg/injection, schedule: Q01DX001 (ip), vehicle: other): 0 of 6

COc1oc(C2C/C(=C/C(C)=C/C(C)=C/C(C)=C/c3ccc([N+](=O)[O-])cc3)CO2)c(C)c(=O)c1C (centres undefined)
T/C (T/C endpoint: median survival time, dose: 1.0 mg/kg/injection, schedule: Q01DX009 (ip), vehicle: saline): 135 % of control | T/C (T/C endpoint: median survival time, dose: 2.0 mg/kg/injection, schedule: Q01DX009 (ip), vehicle: saline): 137 and 141 % of control | T/C [5]: 132 % of control | survivor count [5]: 3 of 6 | survivor count (T/C endpoint: median survival time, dose: 8.0 mg/kg/injection, schedule: Q01DX009 (ip), vehicle: saline): 0 of 6

CC(C)(CCC#N)C(=O)c1ccccc1
survivor count (T/C endpoint: mean survival time, dose: 400.0 mg/kg/injection, schedule: Q04DX002 (ip), vehicle: saline with Tween-80): 0 of 3

O=C(Nc1ccc(Cl)c(C(F)(F)F)c1)Nc1cc(C(F)(F)F)ccc1Sc1cc(Cl)c(Cl)cc1S(=O)(=O)O
survivor count [3]: 1 of 6 | survivor count [4]: 0 of 6

CCCC1NNC(CCC)NN1 (centres undefined)
survivor count [1]: 0 of 6 | survivor count [2]: 0 of 6

CC1(C)CN(c2ccccc2)N(CN2CCOCC2)C1=O
survivor count (T/C endpoint: mean survival time, dose: 25.0 mg/kg/injection, schedule: Q01DX009 (ip), vehicle: Klucel (hydroxypropylcellulose) (HPC)): 0 of 3 | survivor count (T/C endpoint: mean survival time, dose: 50.0 mg/kg/injection, schedule: Q01DX009 (ip), vehicle: Klucel (hydroxypropylcellulose) (HPC)): 0 of 3 | survivor count (T/C endpoint: mean survival time, dose: 100.0 mg/kg/injection, schedule: Q01DX009 (ip), vehicle: Klucel (hydroxypropylcellulose) (HPC)): 0 of 3 | survivor count (T/C endpoint: mean survival time, dose: 200.0 mg/kg/injection, schedule: Q01DX009 (ip), vehicle: Klucel (hydroxypropylcellulose) (HPC)): 0 of 3
